Over roughly 33,000 sequences, “E-score (-0.5 to 0.5)” has its median near -0.0014; the highest 2% begin near 0.25. This is one part of the list.
Biological target: T1, Cad1 (UniProt P24813)
T1 sequence: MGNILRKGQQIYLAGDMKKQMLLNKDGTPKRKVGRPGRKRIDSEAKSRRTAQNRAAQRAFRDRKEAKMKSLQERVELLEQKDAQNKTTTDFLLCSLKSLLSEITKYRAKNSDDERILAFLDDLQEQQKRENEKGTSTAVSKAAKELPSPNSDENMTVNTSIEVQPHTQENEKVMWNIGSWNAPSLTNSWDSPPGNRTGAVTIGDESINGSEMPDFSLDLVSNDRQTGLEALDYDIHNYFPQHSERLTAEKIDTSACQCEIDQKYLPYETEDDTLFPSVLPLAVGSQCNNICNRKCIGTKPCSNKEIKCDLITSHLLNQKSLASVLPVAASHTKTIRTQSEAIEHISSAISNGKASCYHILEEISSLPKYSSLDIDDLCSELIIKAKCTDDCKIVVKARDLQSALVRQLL
Test: PBM E-score (8-mer binding enrichment) (E-score (-0.5 to 0.5)); higher = stronger / more preferred TF binding
Conditions: protein concentration: 100 nM; construct: GST-full length
Experimental: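 Universal 'all 10-mer' protein binding microarrays (Agilent AMADID 015681) probed with GST-tagged S. cerevisiae TFs (full-length or DBD) made by in vitro transcription/translation (PURExpress), about 100-200 nM. Bound TF was detected with fluorescent anti-GST. Each ungapped 8-mer (which stands for itself and its reverse complement) is scored by the PBM enrichment score (E-score), a modified Wilcoxon-Mann-Whitney statistic from -0.5 to +0.5, computed with the Universal PBM Analysis Suite. Scale: above 0.35 generally sequence-specific binding.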

Sequence	PBM E-score
CAGTAGGA	-0.256
CTACCTCA	-0.107
AGCGCTAG	0.0563
CATGTCCG	0.0132
ACGCAAGG	0.19
AGACCGGG	-0.0747
CCCGGGCA	-0.157
CTCGAATC	-0.0398
CACACGCG	0.198
CCGGACGA	0.0645
CCTTCAGA	-0.0779
CTGTGGTA	0.127
AACCTTAC	0.214
GCCAGAAA	0.15
TACAACAA	0.0832
CGCTGAGA	0.143
TGCGTACA	0.00948
ACTGTCCG	0.00138
ATATAACA	0.213
CTATGAAA	0.00882
ACACTTCT	0.029
AGGGCGGC	-0.24
ATTGATAG	0.204
CCATATAC	0.0985
CAGCAGTC	-0.032

Sequence	PBM E-score
GACACCTA	-0.102
GTCTGTTA	0.106
AATCTACC	0.0973
GTTCATAA	-0.0578
CTTAAGCC	0.00617
CCCAACGC	0.0459
ACTTCACA	-0.0424
CAACATAC	0.132
GAGTGCGA	0.0237
ACGGCCCG	-0.0776
AATTGTAC	0.252
ACAAGAAT	0.00675
CAGAGCAG	-0.00877
ACTGTTTG	-0.0907
AGTATACA	0.207
GACTTAAA	-0.115
ACTCTCTC	-0.143
ATGCGTTG	0.127
GGTTTAAC	0.00796
GCATCCAC	0.0528
CTGGGAAC	-0.0572
ACTTTGGA	0.038
AAGACTAT	-0.0274
AAGATTCA	-0.00015
GACACAGA	0.0727

Sequence	PBM E-score
CAGCCTAA	-0.094
AAGGGACT	-0.0835
CAACACGG	-0.0871
CTTCGCGC	0.263
CTCCTCGA	-0.151
ACGGACAC	0.0856
CCGCTCAG	-0.125
CCATCGAG	0.14
TATTAATA	0.339
CCAACTAC	0.0584
AGCCATAT	-0.0728
ATCGTGCA	0.166
ATCGAGAC	0.0095
CCAAGGAG	-0.141
CGTGTGAA	0.00012
GCGATCTA	0.0722
CAGGTTCA	-0.134
CTGGACTA	-0.104
GATCCAGA	0.142
CAGCGATA	0.0576
AGATAATC	0.0697
ACGTACTC	-0.0542
CCCTATAA	-0.163
TCCATAAA	-0.0315
CGATCCTC	-0.0855

Copied from the list:
In PBM E-score, GCGATCTA shows 0.0722
In PBM E-score, ATCGTGCA shows 0.166
In PBM E-score, AAGGGACT shows -0.0835
In PBM E-score, AGATAATC shows 0.0697
In PBM E-score, TATTAATA shows 0.339

Remaining list, next part.

Sequence	PBM E-score
CTCTGGTC	-0.0834
AAGGCAGA	-0.147
GTCTCCAC	-0.02
AATGGTTA	0.103
CCACGCCG	-0.0393
GATTAATC	0.355
CTATTGAG	0.0794
AGCGTTCC	0.205
CATCCTCG	0.0642
ATATGCAA	0.145
ATATTATG	0.268
GTCGCTAA	0.087
ACTTAATG	0.138
CCAACGAG	-0.184
CTGGTCCC	-0.336
AACTATTA	0.112
AAGTGGTA	-0.109
ATTTTTGA	-0.0179
ACCGAGGG	-0.362
AGGGCTCG	-0.157
AAGAAATG	0.0466
CCTCACCA	-0.0853
CGGGTAAA	0.0979
AGCGCGGC	0.0398
CCCGGGTC	-0.242

Sequence	PBM E-score
CGATTAAA	0.171
GATCTGAC	0.0697
ATTTGGTA	0.174
CTACTCTA	0.031
CTGTTCTA	0.0156
ACGCATAG	-0.102
CTCGGAAC	0.156
ATCGTGTA	-0.146
TGTAGACA	0.115
CATGATAA	0.0688
CGGCTCAG	0.00884
CAGTCGCA	-0.0677
ACGCATCT	0.128
GCATGTCC	-0.0901
ACCGAATC	0.0443
CTGCCACC	-0.182
ACAAGCGC	-0.0476
ATTAGACA	-0.00626
ACGGAGAT	-0.0194
AAATTAAC	0.0173
AGCCGATG	0.0778
GGGACCAC	-0.0444
AGGTACTG	-0.0341
TTTCGAAA	0.0101
ATATTGAT	0.219

Sequence	PBM E-score
ATCAAACA	0.0662
AATCCCAA	-0.0959
CCTCGTTC	-0.0702
TATTACGA	0.123
ACTGGCAT	-0.218
CAATTATG	0.105
ACGCATAT	0.134
CACACCTA	-0.00871
CGGGGCCA	-0.118
GAGAACGA	-0.0681
CGGGGTCC	-0.234
AGATCTCA	0.0519
GCTCGATA	0.115
GTAGTGAC	0.0381
CGCATCCA	0.0759
CATCGACG	-0.0508
AGGCATTA	-0.16
GGCTGTAA	-0.0504
AAGGGTCG	-0.0629
CCACATCG	-0.106
CGGGGATA	-0.173
AAGTTGTA	0.168
TCTCTGCA	-0.155
TCTGAAGA	-0.194
AAACAACA	0.0947

A second format for part of the listing above.
AGATCTCA
  PBM E-score: 0.0519
GCTCGATA
  PBM E-score: 0.115

The list continues:

Sequence	PBM E-score
CGATTATC	0.0317
ACGCCACC	-0.127
ATAATTTG	0.278
AACATTGG	-0.106
ACAATAAA	0.11
CCCGTTAA	-0.156
GCTCGAGA	-0.00576
ACGACGCT	-0.117
ATAGCTAC	0.0214
CGACGTCC	0.0445
AGACATCA	-0.0364
CAGGGTTA	-0.0267
ACTGTCAC	0.0448
AGGTGTTA	-0.0162
GCTTATGA	0.0282
GTTGTACA	0.286
GGCCATGA	0.0245
GCCGTTGA	0.0928
ATGGCACA	-0.0327
CCGTTGAG	-0.00102
CTCTCCAA	-0.0619
TCTTTTAA	-0.0329
AAGTCTCG	-0.0541
CAAAAGTA	0.071
ACTAACTA	0.00503

Sequence	PBM E-score
CCGGAGGA	-0.28
ATGGGCTA	-0.0265
CCGCGGGA	0.11
ACCGTAAG	0.0917
GACCGAAA	0.0749
AGTTGGGC	0.0898
GGTTTTTA	0.0991
TCGTAAAA	-0.006
CGCTGAGC	0.0447
CCTACGAC	-0.0626
ACACGGCC	-0.0553
CCAACCAA	-0.162
ACTAGCCG	-0.138
CCTCTGCA	-0.0497
CAGCCCTC	-0.0794
AGGCGGTG	-0.203
CTATGGCA	-0.0669
TCATGCCA	-0.00285
ATTTAATA	0.316
AAATGGAA	0.0236
TATGAACA	0.0656
GCGAGGCA	-0.0231
AAGACGCT	-0.149
TTATCAAA	0.3
GCGCTACC	-0.0736

Sequence	PBM E-score
AAGAAGCA	0.0443
CGAGAAAA	0.0659
CTAATCGC	0.0731
CACAAAAG	0.117
CAGGGCTC	-0.158
GTGAGGTA	-0.127
CAGCCACC	-0.0873
AGTAATAT	0.346
CTCAGACC	-0.106
GATGGCAC	-0.156
AGTCTGAC	0.0767
AAAACTGA	-0.00318
CACGATTA	0.162
ATCCTTCG	-0.116
GGTGGGTA	-0.0656
CGCGACCA	0.0986
AGATTATA	-0.0147
ATTCTCCG	0.0526
AAACACGA	0.139

Source: the supplement of paper PMC3334620
